{"source": "PubChem BioAssay AID1347076", "about": "(National Center for Advancing Translational Sciences (NCATS), 2019)", "note": "Hit rate of the full screen: of about 400,000 compounds, about 13,000 (3.2%) were called active. Inconclusive results, whose numbers are uncertain, are shown with a selection of clear calls. Calls come from the whole dose curve; as a rule, active = well fitted cell-killing curve with a large enough effect; inconclusive = small, poorly fitted or top-dose-only effect, or effect the other way; inactive = flat fitted curve, though single readings scatter. Potencies beside an inconclusive call are fits to weak or partial responses and may not hold up. % is set by controls: 0 for no effect and ±100 for the full control effect; potency is the fitted concentration of half-maximal effect."}
{"experiment": "qHTS assay for MDR1-selective chemotherapeutics: Primary screen using the drug-selected MDR subline cells KB-V1; note: nearly all actives have a fitted effect of over 60% in size", "conditions": "KB-V1 MDR cells viability, CellTiter-Glo, 72 h; activity change, negative = cytotoxicity: at 46.1 µM (top of the series)", "procedure,_shortened": "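Cytotoxicity via CellTiter-Glo luminescence after 72 h compound exposure at 37 degrees C. Cells: drug-selected KB-V1 line, DMEM phenol-red free plus 10% FBS. Compounds tested at multiple concentrations; normalized data fitted to concentration-effect curves.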"}
{"compound": "Cc1c(Cl)cccc1NC(=O)N1CCN(Cc2cc(=O)n3nc(-c4ccccc4F)sc3n2)CC1", "Potency": "inconclusive: 5.17 µM [rising, full curve]"}
{"compound": "CCCS(=O)(=O)N1CCC(N2CCN(Cc3ccc(C)cc3)C(=O)C2=O)CC1", "Potency": "inconclusive: 10.3 µM [rising, partial curve, poor fit]"}
{"compound": "CC(=O)NC(Cc1c[nH]c2ccccc12)C(=O)N1CCN(S(=O)(=O)c2ccccc2)CC1", "note": "(configuration not stated)", "activity change, negative = cytotoxicity": "inactive: -0.469%"}
{"compound": "Cc1nc2sc(-c3ccccc3)cc2c(=O)n1N", "Potency": "inconclusive: 29.1 µM [cytotoxic, single point]"}
{"compound": "COCCNC(=O)C1(C)CCCN(Cc2cn(C)c3ccccc23)C1", "note": "(configuration not stated)", "activity change, negative = cytotoxicity": "inactive: 3.1%"}
{"compound": "COc1ccc(/C=C/C(O)=C2/C(=O)N(C)C3(C)CC2c2ccccc2O3)cc1", "note": "(configuration not stated)", "Potency": "inconclusive: 20.6 µM [cytotoxic, single point]"}
{"compound": "CCCc1nc2c(sc3nc4c(cc32)COC(C)(C)C4)c(=O)n1Cc1ccco1", "Potency": "inconclusive: 14.6 µM [cytotoxic, partial curve, poor fit]"}
{"compound": "CSCC[C@H](NC(=O)C1CCN(S(=O)(=O)c2ccccc2)CC1)C(=O)NC1CC1", "Potency": "inconclusive: 0.184 µM [rising, full curve]"}
{"compound": "N#Cc1ccccc1S(=O)(=O)N1CCN(C(=O)c2cc3c(s2)CCC3)CC1", "activity change, negative = cytotoxicity": "inactive: 0.068%"}
{"compound": "O=C(N/C(=C/c1cccc(Br)c1)C(=O)N1CCCCC1)c1ccco1", "Potency": "inconclusive: 10.3 µM [cytotoxic, partial curve, poor fit]"}
{"compound": "O=C(c1ccc2c(=O)n(C3CCCC3)c(=S)[nH]c2c1)N1CCN(C2CCCCC2)CC1", "Potency": "inconclusive: 20.6 µM [cytotoxic, single point]"}
{"compound": "O=C(NCCN1CCC(n2c(=O)[nH]c3ccccc32)CC1)c1ccc(C(F)(F)F)cc1C(F)(F)F", "Potency": "active: 11.6 µM"}
{"compound": "COc1cccc(/C=C2/SC(=S)N(CCCC(=O)Nc3ccc(O)cc3)C2=O)c1", "Potency": "inconclusive: 32.6 µM [cytotoxic, partial curve, poor fit]"}
{"compound": "CCCCn1c(N)c(N(CC(C)C)C(=O)C2CCC2)c(=O)[nH]c1=O", "Potency": "inconclusive: 25.9 µM [cytotoxic, single point]"}
{"compound": "CCc1cc(C(=O)N2CCCC(N3CCN(c4cccc(C(F)(F)F)c4)CC3)C2)n(C)n1", "note": "(configuration not stated)", "Potency": "inconclusive: 16.4 µM [cytotoxic, partial curve, poor fit]"}
{"compound": "Cc1cccc(C(=O)NC(=S)Nc2ccccc2C(=O)O)c1", "activity change, negative = cytotoxicity": "inactive: -4.03%"}
{"compound": "CC(C)(C)OC(=O)N1CCCC(C(=O)Nc2cccc(C(=O)N3CCCC3)c2)C1", "note": "(configuration not stated)", "Potency": "inconclusive: 4.11 µM [rising, partial curve, poor fit]"}
{"compound": "Cc1cc(C)c2c(=O)cc(C(=O)NCCc3ccc(S(N)(=O)=O)cc3)oc2c1", "Potency": "inconclusive: 29.1 µM [rising, single point]"}
{"compound": "CCOc1cc(-c2nc(-c3ccccc3)c(-c3cc([N+](=O)[O-])ccc3C)[nH]2)ccc1O", "Potency": "active: 18.4 µM"}
{"compound": "CC(C)c1onc(C(=O)N2CCN(c3ccc(F)cc3)CC2)c1[N+](=O)[O-]", "activity change, negative = cytotoxicity": "inactive: 9.26%"}
{"compound": "Cc1cccc(CN2CCc3c(OCC(=O)N4CCCc5ccccc54)cccc3C2=O)c1", "Potency": "inconclusive: 32.6 µM [cytotoxic, partial curve, poor fit]"}
{"compound": "Cc1noc(C)c1S(=O)(=O)Nc1ccc(C(=O)NCCc2ccccc2)cc1", "activity change, negative = cytotoxicity": "inactive: 0%"}
{"compound": "O=C(CNC(=O)c1ccccc1)OCC(=O)N1c2ccccc2Sc2ccccc21", "Potency": "inconclusive: 16.4 µM [cytotoxic, partial curve, poor fit]"}
{"compound": "O=S(=O)(c1cccc(C(F)(F)F)c1)N1CCC(c2nc3ccccc3[nH]2)CC1", "activity change, negative = cytotoxicity": "inactive: -24.9%"}
{"compound": "Cc1ccc(S(=O)(=O)Nc2cc(C)c(O)c(Sc3n[nH]c(C)n3)c2)cc1", "activity change, negative = cytotoxicity": "inactive: -21.9%"}
{"compound": "CC(C)(C)c1ccc(C(=O)NCCC(=O)NNC(=O)COc2ccccc2F)cc1", "activity change, negative = cytotoxicity": "inactive: 22%"}
{"compound": "CCNC(=S)N/N=C/c1cn(Cc2ccc(F)cc2)c2ccccc12", "Potency": "inconclusive: 20.6 µM [cytotoxic, single point]"}
{"compound": "Cc1ccccc1CNC(=O)C(=O)NCC(c1ccco1)S(=O)(=O)c1ccc(F)cc1", "note": "(configuration not stated)", "Potency": "inconclusive: 20.6 µM [cytotoxic, partial curve, poor fit]"}
{"compound": "CCn1c(C(=O)NCCCc2ccccc2)cc2sccc21", "Potency": "inconclusive: 23.1 µM [cytotoxic, partial curve]"}
{"compound": "Cc1ccc(-n2ccc(=O)c(C(=O)Nc3ccc(S(=O)(=O)Nc4onc(C)c4C)cc3)n2)cc1", "Potency": "inconclusive: 5.17 µM [rising, full curve]"}
{"compound": "CC(=O)N[C@H]1[C@H](Oc2ccc3c(c2)CCC2C3CC[C@]3(C)C(=O)CCC23)O[C@H](CO)[C@@H](O)[C@@H]1O", "note": "(some centres not stated)", "activity change, negative = cytotoxicity": "inactive: -6.07%"}
{"compound": "CN(C)c1ccc(-c2ccnc3c2CC(C)(C(=O)NCc2ccccc2)O3)cc1", "note": "(configuration not stated)", "Potency": "inconclusive: 16.4 µM [cytotoxic, single point]"}
{"compound": "CC(C)(C)SCCNC(=O)c1ccc(CN2CCc3ccccc3C2)cc1", "Potency": "inconclusive: 4.11 µM [cytotoxic, full curve, poor fit]"}
{"compound": "Cc1[nH]nc2ncc(C(=O)c3cc(F)ccc3O)cc12", "Potency": "active: 8.2 µM"}
{"compound": "COc1ccc(CCNC(=O)c2cc(C3CC3)on2)cc1OC", "Potency": "inconclusive: 16.4 µM [cytotoxic, partial curve, poor fit]"}
{"compound": "O=C(O)c1ccc(N/N=C/c2ccc(-c3cc(Cl)ccc3Cl)o2)cc1", "Potency": "inconclusive: 6.51 µM [rising, full curve]"}
{"compound": "Cc1ccc2c(CNCc3cccs3)c(C(=O)O)n(Cc3ccc(F)cc3)c2c1", "activity change, negative = cytotoxicity": "inactive: -13.9%"}
{"compound": "O=C(NC1CCCC1)c1cc2c(ccc3ccccc32)o1", "Potency": "inconclusive: 7.31 µM [cytotoxic, partial curve, poor fit]"}
{"compound": "Cc1ccc2c(=O)cc(C(=O)Nc3sc4c(c3C(=O)NCc3ccco3)CCCC4)oc2c1C", "Potency": "inconclusive: 23.1 µM [rising, partial curve]"}
{"compound": "CCC(C)NC(=O)Cn1ncc2c(C)n(Cc3ccc(F)cc3)c(C)c2c1=O", "note": "(configuration not stated)", "activity change, negative = cytotoxicity": "inactive: 1.77%"}
{"compound": "N#C/C(=C/c1ccc(N2CCCCC2)cc1)c1cccc(F)c1", "Potency": "inconclusive: 18.4 µM [cytotoxic, single point]"}
{"compound": "Cc1ccc2nc(-c3cccc(Br)c3)c(Cc3ccccc3)n2c1", "Potency": "inconclusive: 32.6 µM [cytotoxic, single point]"}
{"compound": "COc1cccc2sc(N3CCN(C(=O)c4ccc([N+](=O)[O-])o4)CC3)nc12", "Potency": "inconclusive: 23.1 µM [cytotoxic, partial curve, poor fit]"}
{"compound": "COc1cc(OC)c(NC2=CC(=O)C(=O)c3ccccc32)cc1Cl", "Potency": "active: 4.11 µM"}
{"compound": "CCc1nnc2n1N=C(c1ccc(OC)cc1)CS2", "Potency": "active: 16.4 µM"}
{"compound": "O=C(NCc1ccncc1)[C@@H]1CCCN1C(=O)[C@@H]1CCCN1C(=O)c1ccccc1", "activity change, negative = cytotoxicity": "inactive: 13.5%"}
{"compound": "O=c1[nH]c(=O)c2nc(-c3ccc(Cl)cc3)cnc2[nH]1", "Potency": "inconclusive: 16.4 µM [cytotoxic, single point]"}
{"compound": "COc1ccccc1C(=O)NCC(=O)N/N=C/c1cc(Br)ccc1OC(=O)/C=C\\c1ccco1", "activity change, negative = cytotoxicity": "inconclusive: -1.2%"}
{"compound": "Cc1cc(C)c(C2=CC(=O)C[C@H](c3ccc4c(c3)OCO4)C2)c(C)c1", "activity change, negative = cytotoxicity": "inactive: -8.11%"}
{"compound": "Cc1cc(C)cc(NC2=NC3(CCCCC3)N=C(N)N2)c1", "activity change, negative = cytotoxicity": "inactive: -0.862%"}
{"compound": "COc1ccc(-n2cc(C(=O)Nc3cc([N+](=O)[O-])ccc3OC)c3ccccc3c2=O)cc1", "Potency": "inconclusive: 2.06 µM [cytotoxic, partial curve, poor fit]"}
{"compound": "Cc1cccc(C)c1Nc1c(-c2ccsc2)nc2ncccn12", "Potency": "active: 11.6 µM"}
{"compound": "Cn1ncc2c(NCc3cccc(Cl)c3)ncnc21", "Potency": "inconclusive: 32.6 µM [cytotoxic, single point]"}
{"compound": "CCOc1ccc(Oc2nc(N(CC)CC)nc(N3CCOCC3)n2)nn1", "Potency": "inconclusive: 16.4 µM [cytotoxic, single point]"}
{"compound": "COc1ccc(Br)cc1Cn1nnc(C(=O)Nc2ccc3c(c2)OCCO3)c1N", "Potency": "inconclusive: 29.1 µM [cytotoxic, partial curve, poor fit]"}
{"compound": "O=C(Nc1nc(-c2cccc([N+](=O)[O-])c2)cs1)C(c1ccccc1)c1ccccc1", "Potency": "inconclusive: 29.1 µM [cytotoxic, single point]"}
{"compound": "Cc1ccc(N/C(N)=N/c2nc(C)cc(C)n2)cc1", "Potency": "inconclusive: 18.4 µM [cytotoxic, single point]"}
{"compound": "CC1CCC2(CC1)NC(=O)N(CC(=O)N1CCc3ccccc3C1)C2=O", "note": "(configuration not stated)", "Potency": "inconclusive: 29.1 µM [cytotoxic, single point]"}
{"compound": "O=C(NC1CCCCC1)C(c1ccncc1)N(Cc1ccc(F)cc1)C(=O)c1ccccn1", "note": "(configuration not stated)", "Potency": "inconclusive: 1.3 µM [cytotoxic, partial curve, poor fit]"}
{"compound": "Cn1c(Cc2ccccc2)nnc1SCC(=O)NC1CCCC1", "activity change, negative = cytotoxicity": "inactive: 7.38%"}
{"compound": "O=C(NCc1ccccn1)c1c(O)c2cccc3c2n(c1=O)CC3", "Potency": "inconclusive: 18.4 µM [cytotoxic, partial curve, poor fit]"}
{"compound": "CCCCCCCCCCCCN1[C@@H](CC(=O)OC)c2cc(C(F)(F)F)ccc2S1(=O)=O", "Potency": "inactive"}
{"compound": "CC(=O)NCCOc1nc(N(C)C)nc(N2CCCCC2)n1", "activity change, negative = cytotoxicity": "inactive: -1.3%"}
{"compound": "NC(=O)COc1ccc2c3c(c(=O)oc2c1)CCCCC3", "Potency": "inconclusive: 29.1 µM [cytotoxic, single point]"}
{"compound": "COc1ccccc1CNC(=O)c1cc(S(=O)(=O)N2CCN(c3ccccc3)CC2)ccc1Cl", "Potency": "active: 4.61 µM"}
{"compound": "CCn1ncc(/C=N\\NC(=O)c2csc3ccccc23)c1C", "Potency": "inconclusive: 6.51 µM [cytotoxic, full curve, poor fit]"}
{"compound": "Nc1c(C(=O)Nc2ccc3c(c2)OCCO3)nnn1Cc1cccc(Br)c1", "Potency": "active: 14.6 µM"}
